Our source for the switch fluorescence ratio values is the supplement of paper PMC10126150.

± gives the standard deviation of the averaged measurements.

The data set concerns ATP. The experiment in a line: switch fluorescence ratio, 500 uM ATP over buffer (Cy3 cluster intensity, sum of 5 cycles each) (fold (ratio)); higher = stronger signal-on switching upon ATP binding; sequences stand for … in TCGTCGGCAGCGTCAGATGTGTATAAGAGACAGTTTTTTTTTTTTTTTTTTTTTTTTT…TC. The following applies: aptamer strand: ATP DNA aptamer (quencher-CACCTGGGGGAGTATTGCGGAGGAAGG + anchor), 100 nM annealed; ATP concentration: 500 uM. A digest of the protocol: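 Five buffer/ATP imaging cycles were run on Cy3-labelled switching-strand clusters on a modified Illumina MiSeq flow-cell, with NaOH stripping and re-annealing between cycles. In each cycle, clusters annealed to 100 nM quencher-labelled ATP aptamer were imaged in selection buffer, then after 15 min with 500 uM ATP at 22 °C. Per cluster, the fluorescence ratio is summed target-cycle over summed buffer-cycle Cy3 intensity, averaged per switch-domain sequence. Only clusters within 100-1000 RFU were kept.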
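Note: ATP exposure 15 min at 22 °C before imaging.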

Take GAGATGGAGT: the switch fluorescence ratio is 0.974 ± 0.03.
